{"source": "PubChem BioAssay AID2685", "about": "(National Center for Advancing Translational Sciences (NCATS), 2010)", "note": "Screen size: about 320,000 compounds; about 2,100 (0.66%) were called active. Inconclusive results, whose numbers are uncertain, are shown with a selection of clear calls. Calls follow the shape of the dose curve; as a rule, active = well fitted inhibition curve with a large enough effect in the signal ratio, with a control signal flat (not every such curve was filed as active); inconclusive = small, poorly fitted or top-dose-only effect, or effect the other way, or a change in a side signal; inactive = flat fitted curve, though single readings scatter; the % refers to the signal ratio. A potency beside an inconclusive call is a rough fit, not a confirmed value. % is scaled to controls: 0 for no effect and ±100 for the full control effect; potency is read from the fitted curve at half-maximal effect."}
{"assay": "qHTS Assay for Lipid Storage Modulators in Drosophila S3 Cells", "settings": "BODIPY lipid droplet fluorescence, 18-24 h, cells fed with added oleic acid; lipid storage change, negative = inhibition: at 46.1 µM (top of the series) unless noted", "outline": "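Drosophila S3 cells loaded with oleic acid (400 uM, as added) and compounds at several concentrations; lipid droplets imaged by 488-nm laser-scanning cytometry, 500–530 nm intensity and object ratio to cell channel. Percent activity normalized to 20 uM Triacsin C.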"}
{"smiles": "COc1c(C)cc(S(=O)(=O)N2CCOCC2)c(C)c1C", "lipid storage change, negative = inhibition": "inconclusive: 22.6%"}
{"smiles": "CCCOc1ccc(-c2nc(SCc3ccccc3)[nH]c(=O)c2C#N)cc1OC", "lipid storage change, negative = inhibition": "inconclusive: -1.73%"}
{"smiles": "Cc1ccc(N2C(=O)CC(Nc3cccc4ccccc34)C2=O)cc1", "note": "(stereo not drawn)", "lipid storage change, negative = inhibition": "inconclusive: -1.4%"}
{"smiles": "CCCN=Cc1sc2ccc(OCC)cc2c1O", "Potency": "inconclusive: 23.1 µM [activator, partial curve, poor fit]"}
{"smiles": "FC(F)(F)c1ccc(NCCc2ccccc2)nc1", "lipid storage change, negative = inhibition": "inconclusive: 4.86%"}
{"smiles": "CC(C)=CC(=O)Nc1ccc(S(=O)(=O)Nc2onc(C)c2C)cc1", "Potency": "inconclusive: 29.1 µM [activator, single point]"}
{"smiles": "CCCCn1nc2cc(C(=O)NCc3ccccc3OC)ccc2c1OCC", "lipid storage change, negative = inhibition": "inconclusive: -9.26%"}
{"smiles": "N/C(=N\\OC(=O)COc1cc(Cl)c(Cl)cc1Cl)c1ccccn1", "lipid storage change, negative = inhibition": "inconclusive: 15%"}
{"smiles": "Cc1ccc(S(=O)(=O)N2CCCCC2CCNC(=O)C(=O)NC2CCCC2)cc1", "note": "(stereo not drawn)", "Potency": "active: 0.184 µM"}
{"smiles": "Nc1[nH][nH]c(=O)c1N=Nc1ccc2c(c1)OCO2", "Potency": "inconclusive: 6.51 µM [falling, single point]"}
{"smiles": "COc1ccc(Cc2nnc(NC(=O)Nc3ccc(C)cc3)s2)cc1OC", "lipid storage change, negative = inhibition": "inconclusive: 13.9%"}
{"smiles": "CCOC(=O)CC1(CC(=O)OCC)NC(=O)c2c(C)sc(C(=O)OCC)c2N1", "lipid storage change, negative = inhibition": "inconclusive: 70%"}
{"smiles": "CCOc1ccc(C(=O)NCC(C)NC(=O)c2ccc(OCC)cc2)cc1", "note": "(stereo not drawn)", "lipid storage change, negative = inhibition": "inconclusive: -10.1%"}
{"smiles": "CCc1ccc(N(C(=O)CNC(=O)c2ccco2)C(C(=O)NCC2CCCO2)c2ccccc2)cc1", "note": "(stereo not drawn)", "lipid storage change, negative = inhibition": "inconclusive: -24.8%"}
{"smiles": "O=C(CCNS(=O)(=O)c1ccc(Cl)cc1)NCc1cccnc1", "lipid storage change, negative = inhibition": "inconclusive: -10.4%"}
{"smiles": "O=C(c1cc2ccccc2oc1=O)N1CCCC1", "lipid storage change, negative = inhibition": "inconclusive: 21%"}
{"smiles": "O=c1oc2ccccc2cc1-c1csc(Nc2nc3ccc(F)cc3s2)n1", "lipid storage change, negative = inhibition": "inconclusive: -10.1%"}
{"smiles": "CCOc1ccc(S(=O)(=O)N/N=C(\\C)c2ccc(Cl)c(Cl)c2Cl)cc1", "Potency": "inconclusive: 29.1 µM [cytotoxic, single point]"}
{"smiles": "O=C(CN1CCc2ccccc2C1)Nc1ccccc1C(=O)NC1CC1", "Potency": "inconclusive: 0.92 µM [falling, full curve, poor fit]"}
{"smiles": "CCOc1ccc(C(=O)NC(=S)Nc2ccc(NC(=O)CC)cc2)cc1[N+](=O)[O-]", "Potency": "inconclusive: 5.8 µM [activator, partial curve]"}
{"smiles": "CCCCn1c(N)c(N(CCOC)C(=O)c2c(C)noc2C)c(=O)[nH]c1=O", "lipid storage change, negative = inhibition": "inconclusive"}
{"smiles": "Cc1ccc2nc(N(CCCN(C)C)C(=O)c3cc4ccccc4oc3=O)sc2c1", "lipid storage change, negative = inhibition": "inconclusive: -38.6%"}
{"smiles": "COc1cc(/C=N/NC(=O)c2ccc(CN3C(=O)c4cccc5cccc3c45)cc2)cc(OC)c1O", "Potency": "active: 3.26 µM"}
{"smiles": "CCOc1cc(/C=N/O)ccc1OCc1ccc(C)cc1", "Potency": "inconclusive: 29.1 µM [falling, single point]"}
{"smiles": "CC(C)CN(C(=O)CC(C)c1ccccc1)c1c(N)n(Cc2ccccc2)c(=O)[nH]c1=O", "note": "(stereo not drawn)", "lipid storage change, negative = inhibition": "inconclusive: 12.1%"}
{"smiles": "Cc1cc(NC(=O)CCCSc2nc(-c3ccco3)cc(C(F)(F)F)n2)no1", "Potency": "inconclusive: 1.16 µM [falling, single point]"}
{"smiles": "CC(C)CCNC(=O)C(c1ccco1)N(CCCO)C(=O)Cn1nnc(-c2ccc(F)cc2)n1", "note": "(stereo not drawn)", "lipid storage change, negative = inhibition": "inconclusive: 26.4%"}
{"smiles": "O=C(CCSc1ccccc1)OCn1nnc2ccccc2c1=O", "lipid storage change, negative = inhibition": "inconclusive: 18.9%"}
{"smiles": "O=C(N/N=C/c1ccc(N2CCCC2)c([N+](=O)[O-])c1)c1cccnc1", "lipid storage change, negative = inhibition": "inconclusive: 11.9%"}
{"smiles": "CC(=O)N1c2ccc(S(=O)(=O)N3CCCC(C(=O)Nc4cc(C)cc(C)c4)C3)cc2CC1C", "note": "(stereo not drawn)", "lipid storage change, negative = inhibition": "inconclusive: 20.8%"}
{"smiles": "Cc1cccc(N2CC(C(=O)Nc3ccc(S(=O)(=O)NCC4CCCO4)cc3)CC2=O)c1C", "note": "(stereo not drawn)", "Potency": "inconclusive: 0.103 µM [activator, full curve, poor fit]"}
{"smiles": "O=C(CCN1C(=O)/C(=C\\c2ccc(F)cc2)SC1=S)Nc1ccc(O)cc1", "lipid storage change, negative = inhibition": "inconclusive: 20.8%"}
{"smiles": "COc1ccc(S(=O)(=O)Nc2c(C)n(C)n(-c3ccccc3)c2=O)cc1Br", "lipid storage change, negative = inhibition": "inactive"}
{"smiles": "CN(CC(=O)Nc1cccc(S(=O)(=O)N2CCCCC2)c1)Cc1ccc(F)cc1", "lipid storage change, negative = inhibition": "inconclusive: -15.5%"}
{"smiles": "Brc1ccc(-c2csc(NNC3=NCCCCC3)n2)cc1", "Potency": "inconclusive: 29.1 µM [falling, single point]"}
{"smiles": "CCN1CCN(C(=O)c2cc(S(=O)(=O)N3CCCCC3)ccc2Cl)CC1", "lipid storage change, negative = inhibition": "inconclusive: -6.57%"}
{"smiles": "CCCn1nc(-c2ccccc2)c2nc3ccccc3nc21", "lipid storage change, negative = inhibition": "inconclusive: 19.2%"}
{"smiles": "COc1ccc(N2CCN(C(=O)C(=O)c3cn(CC(=O)N4CCCCCC4)c4ccccc34)CC2)cc1", "lipid storage change, negative = inhibition": "inconclusive: -70.4%"}
{"smiles": "CC(c1nnc(SCC(=O)Nc2ccc3[nH]c(=O)[nH]c3c2)n1Cc1ccccc1)N(C)C", "note": "(stereo not drawn)", "lipid storage change, negative = inhibition": "inconclusive: 72.2%"}
{"smiles": "O=C(CSc1ccc(-c2ccc(-n3cccn3)cc2)nn1)Nc1ccccc1F", "lipid storage change, negative = inhibition": "inconclusive: 17.7%"}
{"smiles": "COCc1ccc(C(=O)N2CCCC(N(C)CCc3ccc(OC)c(OC)c3)C2)s1", "note": "(stereo not drawn)", "lipid storage change, negative = inhibition": "inconclusive: 49.7%"}
{"smiles": "O=C(O)/C=C/c1ccc(S(=O)(=O)N2CCN(CCN3C(=O)C4C5C=CC(C5)C4C3=O)CC2)cc1", "note": "(stereo not drawn)", "lipid storage change, negative = inhibition": "inconclusive: -24.2%"}
{"smiles": "COc1ccc(NC(=O)CNc2ccccc2N2CCCC2=O)cc1S(=O)(=O)N1CCOCC1", "Potency": "inconclusive: 1.64 µM [activator, full curve]"}
{"smiles": "CCOC(=O)C(C)Sc1nc2c(c(-c3cccs3)c1C#N)CCC2", "note": "(stereo not drawn)", "Potency": "inconclusive: 0.146 µM [activator, full curve, poor fit]"}
{"smiles": "COC(=O)CCCC(=O)N1CCOCCN(C(=O)CCCC(=O)OC)CCOCC1", "lipid storage change, negative = inhibition": "inconclusive: -0.32%"}
{"smiles": "CCOC(=O)N1CCN(C2=C(NS(=O)(=O)c3ccc(C)cc3)C(=O)c3ccccc3C2=O)CC1", "lipid storage change, negative = inhibition": "inactive"}
{"smiles": "Clc1ccc(-c2nc3ccccc3[nH]2)cn1", "lipid storage change, negative = inhibition": "inconclusive: -17.7%"}
{"smiles": "COc1ccc(-c2cc(C(=O)N3CC(C)CC(C)C3)c3ccccc3n2)cc1OC", "note": "(stereo not drawn)", "lipid storage change, negative = inhibition": "inconclusive: 25.3%"}
{"smiles": "CC(C(=O)OCC(=O)N1CCN(c2ccccc2)CC1)N1C(=O)c2ccccc2C1=O", "note": "(stereo not drawn)", "lipid storage change, negative = inhibition": "inconclusive: -0.14%"}
{"smiles": "CCSc1nnc(-c2cc3c(s2)-c2ccccc2CC3)o1", "lipid storage change, negative = inhibition": "inconclusive: 32.1%"}
{"smiles": "Cc1csc(Nc2ccccc2)n1", "lipid storage change, negative = inhibition": "inconclusive: -39% [at 0.00295 µM]"}
{"smiles": "CCN(CC)C(=O)Cn1cnc([N+](=O)[O-])n1", "Potency": "inconclusive: 0.58 µM [activator, single point]"}
{"smiles": "CC(=O)c1cc(Cc2csc(C(C)=O)c2)cs1", "lipid storage change, negative = inhibition": "inconclusive: -12.8%"}
{"smiles": "Cc1ccc(N2CCN(CCCN3C(=O)C4CCCN4C3=O)CC2)cc1", "note": "(stereo not drawn)", "lipid storage change, negative = inhibition": "inconclusive: 10.6%"}
{"smiles": "Nc1c(S(=O)(=O)c2ccccc2)cnc2c(-c3ccc(F)cc3)cnn12", "lipid storage change, negative = inhibition": "inconclusive: -62.4%"}
{"smiles": "COc1ccc(C)cc1NC(=S)Nc1ccccc1SC", "Potency": "inconclusive: 0.13 µM [falling, full curve, poor fit]"}
{"smiles": "CCCCN1C(=O)C(NC(C)=O)c2cc(Br)ccc21", "note": "(stereo not drawn)", "lipid storage change, negative = inhibition": "inconclusive: 85.5%"}
{"smiles": "COc1cc(NC(=O)C(c2ccccc2)c2ccccc2)c(C(=O)O)cc1OC", "Potency": "inconclusive: 29.1 µM [activator, single point]"}
{"smiles": "CCOc1ccc(N(CC(=O)OC)S(=O)(=O)c2c(C)noc2C)cc1", "lipid storage change, negative = inhibition": "inconclusive: 3.02%"}
{"smiles": "CCOC(=O)N1CCC(NC(=O)CN2C(=O)CSc3ncccc32)CC1", "lipid storage change, negative = inhibition": "inconclusive: 1.53%"}
{"smiles": "CN(C)C(=O)c1ccc(NC(=O)CSc2nnc(-c3ccc4c(c3)OCO4)o2)cc1", "lipid storage change, negative = inhibition": "inconclusive: 26.2%"}
{"smiles": "COc1ccc(-c2cc(C(=O)Nc3sc4c(c3C#N)CCCC4)c3ccccc3n2)cc1OC", "lipid storage change, negative = inhibition": "inconclusive: 10.3%"}
{"smiles": "CCc1cccc(Nc2c3c(nc4ncnn24)CCC3)c1", "lipid storage change, negative = inhibition": "inconclusive: 23.4%"}
{"smiles": "CCOC(=O)/C(C(=O)Nc1ccc(Cl)cc1Cl)=C1/NC(C)(C)Cc2ccccc21", "lipid storage change, negative = inhibition": "inconclusive: -17.1%"}
{"smiles": "CCn1c(SCC(=O)Nc2nc3ccc(OC)cc3s2)nnc1-c1ccoc1C", "lipid storage change, negative = inhibition": "inconclusive: 10.7%"}
{"smiles": "Cc1occc1C(=O)Nc1nn[nH]n1", "lipid storage change, negative = inhibition": "inconclusive: 6.67%"}
{"smiles": "CC1=C(C(=O)Nc2ccccc2)C2(CCCCC2)C(C#N)=C(SCC(N)=O)N1", "lipid storage change, negative = inhibition": "inconclusive: -4.52%"}
{"smiles": "Cc1ccc(NC(=O)N[C@H](C(=O)O)C(C)C)c(C)c1", "lipid storage change, negative = inhibition": "inconclusive: -13.5%"}
{"smiles": "COc1ccc(CCNS(=O)(=O)c2ccc(-c3ccc(=O)[nH]n3)o2)cc1OC", "lipid storage change, negative = inhibition": "inconclusive: 12.9%"}
{"smiles": "Cc1ccc(-n2ccnc2SCC(=O)N(CC(C)C)C2CCS(=O)(=O)C2)c(C)c1", "note": "(stereo not drawn)", "Potency": "inconclusive: 18.4 µM [falling, single point]"}
{"smiles": "O=C1N/C(=C/c2cccs2)C(=O)N1Cc1ccccc1F", "lipid storage change, negative = inhibition": "inconclusive: 10.1%"}
{"smiles": "CC(=O)c1cccc(S(=O)(=O)N2CCC(C(=O)Nc3cccc(C(=O)NC4CC4)c3)CC2)c1", "Potency": "inconclusive: 5.17 µM [falling, partial curve, poor fit]"}
{"smiles": "CCN(CC)c1nc2n(c(=O)n1)CCN2CC", "Potency": "active: 5.17 µM"}
{"smiles": "Cc1ccc(C(=O)OC(C(=O)Nc2ccc(Cl)cc2C(F)(F)F)c2ccccc2)cc1", "note": "(stereo not drawn)", "lipid storage change, negative = inhibition": "inconclusive: 32.4%"}
{"smiles": "O=C(CSc1ccccc1)Nc1nccs1", "Potency": "inconclusive: 16.4 µM [rising, single point]"}
{"smiles": "O=c1oc2ccccc2c(N2CCCCC2)c1[N+](=O)[O-]", "lipid storage change, negative = inhibition": "inconclusive: -6.08%"}
{"smiles": "COc1ccc(NC2CCCN(C(=O)c3csc(C)n3)C2)cc1", "note": "(stereo not drawn)", "lipid storage change, negative = inhibition": "inconclusive: -31.4%"}
{"smiles": "CC(=O)N/C(=C\\c1ccccc1)C(=O)OCC(=O)c1ccc(F)cc1", "Potency": "inconclusive: 0.0052 µM [falling, full curve, poor fit]"}
